In the supplement of paper PMC10849652:
Some of the results follow.

By UniProt entry, the sequences of proteins in these tests, tags left out. Where a name states a change or a piece, a line headed by the entry shows the natural chain unless it says otherwise.
UniProt O14668: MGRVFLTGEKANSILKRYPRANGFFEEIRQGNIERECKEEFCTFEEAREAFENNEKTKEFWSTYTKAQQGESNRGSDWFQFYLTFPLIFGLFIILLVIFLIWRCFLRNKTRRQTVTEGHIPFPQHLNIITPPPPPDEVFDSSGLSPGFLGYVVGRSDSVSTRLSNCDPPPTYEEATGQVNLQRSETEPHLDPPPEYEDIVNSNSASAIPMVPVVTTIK
UniProt Q9Y5Y4: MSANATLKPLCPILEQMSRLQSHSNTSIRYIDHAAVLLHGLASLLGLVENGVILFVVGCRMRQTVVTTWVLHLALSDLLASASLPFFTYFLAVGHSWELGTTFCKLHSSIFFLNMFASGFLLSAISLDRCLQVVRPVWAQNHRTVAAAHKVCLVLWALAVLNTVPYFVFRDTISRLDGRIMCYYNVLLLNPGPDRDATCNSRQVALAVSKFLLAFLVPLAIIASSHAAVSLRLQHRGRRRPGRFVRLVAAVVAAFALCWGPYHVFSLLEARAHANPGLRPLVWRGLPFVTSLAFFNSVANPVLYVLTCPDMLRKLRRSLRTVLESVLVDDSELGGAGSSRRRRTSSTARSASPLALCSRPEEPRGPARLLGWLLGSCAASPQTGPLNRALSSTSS
UniProt Q99952: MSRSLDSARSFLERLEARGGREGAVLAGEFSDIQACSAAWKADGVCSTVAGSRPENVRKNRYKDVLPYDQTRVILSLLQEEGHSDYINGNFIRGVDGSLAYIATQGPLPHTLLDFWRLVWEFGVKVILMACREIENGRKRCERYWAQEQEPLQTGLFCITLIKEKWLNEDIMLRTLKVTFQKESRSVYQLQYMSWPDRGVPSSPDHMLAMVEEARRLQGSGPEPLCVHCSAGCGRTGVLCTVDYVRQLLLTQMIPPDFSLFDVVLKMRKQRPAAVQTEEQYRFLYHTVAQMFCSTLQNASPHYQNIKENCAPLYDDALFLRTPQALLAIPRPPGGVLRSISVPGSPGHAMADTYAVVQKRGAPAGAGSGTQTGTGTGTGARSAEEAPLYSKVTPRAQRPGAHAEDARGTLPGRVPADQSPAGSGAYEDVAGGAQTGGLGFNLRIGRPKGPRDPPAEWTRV
UniProt O75365, whole entry, looked up: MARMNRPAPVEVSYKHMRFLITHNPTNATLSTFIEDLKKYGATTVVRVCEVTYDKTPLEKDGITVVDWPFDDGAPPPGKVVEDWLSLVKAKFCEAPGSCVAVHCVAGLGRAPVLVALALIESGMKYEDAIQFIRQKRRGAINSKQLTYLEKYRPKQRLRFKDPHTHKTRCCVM
UniProt Q569H4: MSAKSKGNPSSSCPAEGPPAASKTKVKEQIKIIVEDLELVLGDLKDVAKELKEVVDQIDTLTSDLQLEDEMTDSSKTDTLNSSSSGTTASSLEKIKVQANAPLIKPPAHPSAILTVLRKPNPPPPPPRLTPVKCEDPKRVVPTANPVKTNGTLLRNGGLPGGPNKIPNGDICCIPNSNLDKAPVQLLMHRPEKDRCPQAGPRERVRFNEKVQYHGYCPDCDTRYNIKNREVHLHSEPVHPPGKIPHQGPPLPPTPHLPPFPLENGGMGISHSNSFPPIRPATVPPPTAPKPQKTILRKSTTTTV
UniProt P07602: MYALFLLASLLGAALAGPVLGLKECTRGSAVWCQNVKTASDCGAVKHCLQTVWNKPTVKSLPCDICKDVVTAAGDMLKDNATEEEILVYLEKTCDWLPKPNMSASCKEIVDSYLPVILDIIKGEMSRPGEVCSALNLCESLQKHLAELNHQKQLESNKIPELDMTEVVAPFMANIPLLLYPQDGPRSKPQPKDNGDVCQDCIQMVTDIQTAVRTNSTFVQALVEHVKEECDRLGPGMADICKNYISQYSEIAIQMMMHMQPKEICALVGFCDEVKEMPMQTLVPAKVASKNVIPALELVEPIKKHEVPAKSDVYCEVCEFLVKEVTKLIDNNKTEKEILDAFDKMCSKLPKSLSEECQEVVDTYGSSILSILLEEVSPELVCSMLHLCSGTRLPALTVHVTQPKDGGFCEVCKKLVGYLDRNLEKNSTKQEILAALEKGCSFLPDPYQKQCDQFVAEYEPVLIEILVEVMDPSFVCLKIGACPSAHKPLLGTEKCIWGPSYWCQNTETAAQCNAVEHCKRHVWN
UniProt Q96N64: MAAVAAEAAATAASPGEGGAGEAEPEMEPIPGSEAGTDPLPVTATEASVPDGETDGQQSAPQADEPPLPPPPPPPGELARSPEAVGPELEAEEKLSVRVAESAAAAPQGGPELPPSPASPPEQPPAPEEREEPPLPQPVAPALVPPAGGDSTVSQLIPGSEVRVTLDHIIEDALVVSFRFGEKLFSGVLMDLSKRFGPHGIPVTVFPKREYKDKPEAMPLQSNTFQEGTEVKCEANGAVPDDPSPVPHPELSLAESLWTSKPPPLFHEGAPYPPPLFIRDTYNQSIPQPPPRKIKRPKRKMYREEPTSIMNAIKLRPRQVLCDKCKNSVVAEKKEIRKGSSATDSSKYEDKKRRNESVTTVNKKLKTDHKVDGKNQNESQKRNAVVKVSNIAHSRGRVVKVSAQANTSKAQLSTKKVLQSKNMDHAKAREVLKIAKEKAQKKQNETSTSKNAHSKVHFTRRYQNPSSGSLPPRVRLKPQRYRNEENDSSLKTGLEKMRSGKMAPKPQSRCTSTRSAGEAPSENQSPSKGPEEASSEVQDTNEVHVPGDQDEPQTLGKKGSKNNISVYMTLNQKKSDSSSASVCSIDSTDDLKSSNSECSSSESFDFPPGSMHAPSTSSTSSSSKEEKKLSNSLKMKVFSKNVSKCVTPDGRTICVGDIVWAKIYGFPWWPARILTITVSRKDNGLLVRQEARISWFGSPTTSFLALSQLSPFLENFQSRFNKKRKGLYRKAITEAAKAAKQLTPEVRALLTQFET
UniProt O14818: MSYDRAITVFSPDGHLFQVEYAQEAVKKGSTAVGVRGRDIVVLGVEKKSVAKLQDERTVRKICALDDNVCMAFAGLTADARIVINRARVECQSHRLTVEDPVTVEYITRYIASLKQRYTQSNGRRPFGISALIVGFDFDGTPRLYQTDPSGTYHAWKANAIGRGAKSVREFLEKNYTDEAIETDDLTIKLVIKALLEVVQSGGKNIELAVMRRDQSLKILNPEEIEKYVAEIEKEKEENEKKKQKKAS
UniProt P43115: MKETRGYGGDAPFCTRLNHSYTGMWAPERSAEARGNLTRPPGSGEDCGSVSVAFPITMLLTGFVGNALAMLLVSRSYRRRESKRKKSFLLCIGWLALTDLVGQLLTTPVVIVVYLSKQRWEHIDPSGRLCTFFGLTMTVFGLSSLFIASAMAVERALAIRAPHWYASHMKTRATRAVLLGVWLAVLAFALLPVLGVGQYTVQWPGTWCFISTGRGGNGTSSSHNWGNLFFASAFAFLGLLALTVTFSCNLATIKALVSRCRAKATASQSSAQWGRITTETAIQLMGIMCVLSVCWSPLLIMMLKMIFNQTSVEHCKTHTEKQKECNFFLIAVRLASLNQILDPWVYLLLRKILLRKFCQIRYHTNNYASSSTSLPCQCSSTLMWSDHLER
UniProt Q15678: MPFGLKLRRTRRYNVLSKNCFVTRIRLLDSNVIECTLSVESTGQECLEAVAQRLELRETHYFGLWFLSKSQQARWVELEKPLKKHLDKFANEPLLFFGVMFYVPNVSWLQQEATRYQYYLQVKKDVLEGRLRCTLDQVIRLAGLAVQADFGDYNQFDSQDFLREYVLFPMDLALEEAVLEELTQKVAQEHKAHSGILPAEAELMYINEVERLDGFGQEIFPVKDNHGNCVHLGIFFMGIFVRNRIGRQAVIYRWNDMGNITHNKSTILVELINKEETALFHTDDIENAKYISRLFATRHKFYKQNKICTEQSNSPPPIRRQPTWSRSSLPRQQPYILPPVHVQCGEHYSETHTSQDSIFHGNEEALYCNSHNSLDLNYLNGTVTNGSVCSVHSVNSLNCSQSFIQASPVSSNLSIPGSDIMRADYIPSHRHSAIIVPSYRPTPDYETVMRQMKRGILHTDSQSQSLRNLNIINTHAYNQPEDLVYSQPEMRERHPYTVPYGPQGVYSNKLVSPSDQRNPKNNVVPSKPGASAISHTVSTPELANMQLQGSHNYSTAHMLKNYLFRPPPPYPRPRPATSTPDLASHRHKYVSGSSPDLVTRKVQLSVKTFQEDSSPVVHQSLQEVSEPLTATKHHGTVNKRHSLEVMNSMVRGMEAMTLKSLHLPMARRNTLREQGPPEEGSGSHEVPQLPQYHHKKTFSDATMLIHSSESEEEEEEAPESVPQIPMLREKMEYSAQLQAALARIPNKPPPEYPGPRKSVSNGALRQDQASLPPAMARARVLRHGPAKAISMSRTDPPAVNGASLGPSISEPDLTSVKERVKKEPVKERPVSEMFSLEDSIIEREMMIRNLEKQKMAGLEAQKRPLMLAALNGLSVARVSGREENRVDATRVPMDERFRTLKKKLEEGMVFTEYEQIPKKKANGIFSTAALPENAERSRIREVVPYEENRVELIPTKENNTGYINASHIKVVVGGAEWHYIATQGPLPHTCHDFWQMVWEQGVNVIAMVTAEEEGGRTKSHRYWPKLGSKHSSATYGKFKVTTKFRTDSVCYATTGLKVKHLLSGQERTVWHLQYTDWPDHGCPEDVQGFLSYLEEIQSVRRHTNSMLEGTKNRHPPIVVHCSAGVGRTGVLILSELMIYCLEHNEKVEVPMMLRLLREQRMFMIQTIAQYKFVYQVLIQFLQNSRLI
UniProt Q8WV60: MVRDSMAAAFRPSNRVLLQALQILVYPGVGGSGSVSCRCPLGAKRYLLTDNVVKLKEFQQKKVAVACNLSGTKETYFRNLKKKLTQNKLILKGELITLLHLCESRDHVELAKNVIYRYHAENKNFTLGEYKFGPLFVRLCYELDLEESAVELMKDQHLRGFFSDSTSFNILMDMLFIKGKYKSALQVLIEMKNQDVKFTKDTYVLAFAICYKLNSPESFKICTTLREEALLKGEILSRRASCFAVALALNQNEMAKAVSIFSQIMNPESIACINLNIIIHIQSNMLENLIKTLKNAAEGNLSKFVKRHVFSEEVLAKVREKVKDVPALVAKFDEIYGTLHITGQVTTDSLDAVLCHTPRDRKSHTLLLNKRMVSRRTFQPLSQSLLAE
UniProt A2A3K4: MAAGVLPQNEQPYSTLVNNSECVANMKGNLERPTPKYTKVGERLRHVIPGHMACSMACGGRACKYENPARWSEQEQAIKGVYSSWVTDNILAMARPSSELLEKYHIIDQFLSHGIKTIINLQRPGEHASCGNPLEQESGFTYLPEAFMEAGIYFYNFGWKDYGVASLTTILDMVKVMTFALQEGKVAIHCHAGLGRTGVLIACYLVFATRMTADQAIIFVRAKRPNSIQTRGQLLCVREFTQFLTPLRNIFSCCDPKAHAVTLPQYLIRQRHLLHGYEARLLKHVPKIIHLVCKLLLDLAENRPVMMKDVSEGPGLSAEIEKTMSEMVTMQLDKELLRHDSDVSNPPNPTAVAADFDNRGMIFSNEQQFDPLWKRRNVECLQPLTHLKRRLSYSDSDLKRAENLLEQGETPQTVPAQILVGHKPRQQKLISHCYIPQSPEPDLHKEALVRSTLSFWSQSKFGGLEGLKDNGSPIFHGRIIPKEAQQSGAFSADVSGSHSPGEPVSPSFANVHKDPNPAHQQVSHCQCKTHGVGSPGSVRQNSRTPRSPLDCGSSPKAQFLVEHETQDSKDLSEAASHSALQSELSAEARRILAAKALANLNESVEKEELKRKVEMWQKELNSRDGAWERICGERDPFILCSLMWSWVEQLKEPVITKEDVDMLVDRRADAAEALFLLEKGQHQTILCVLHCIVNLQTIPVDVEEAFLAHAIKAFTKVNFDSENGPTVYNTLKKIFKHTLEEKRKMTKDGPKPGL

Assays:
Assay in all cases: log2 fold change, soluble protein after heating vs DMSO (PISA); higher = thermal stabilisation; K562 lysate, 10 uM; active = over 0.2 and 3.5 SD of the protein, either way, in both replicates (recomputed)
[1] = compound: CN1CCc2c(c3ccccc3n2Cc2ccc(C(=O)NO)cc2)C1 [Tubastatin A]
Summary of the method: (§1)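 Quantification was by TMTpro 16plex LC-MS/MS with equalised channel sums, applied to the supernatant after 21,000xg for 90 min. Samples were crude K562 extract at 1 mg/mL protein in PBS pH 7.4 with 1 mM MgCl2, treated with 10 μM compound for 30 min, heated for 3 min across 48°C-58°C, pooled and brought to 0.5% NP-40 at 4°C. Values are log-two fold changes in thermal stability relative to solvent controls, from duplicates.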

[2] = compound: CN1CC[C@H](c2c(O)cc(O)c3c(=O)cc(-c4ccccc4Cl)oc23)[C@H](O)C1 [alvocidib]
Summary of the method: as §1

[3] = compound: C[C@H](C1=CC=C(C=C1)C(=O)NC2=C3C=CNC3=NC=C2)N
Summary of the method: as §1

[4] = compound: Cc1cc(Nc2cc(CN3CCOCC3)c3nc(C)c(Cc4ccc(Cl)cc4F)n3n2)n[nH]1 [gandotinib]
Summary of the method: as §1

[5] = compound: Cc1cccc(CC(=O)N2CCc3c2ccc(-c2cn(C)c4ncnc(N)c24)c3F)n1
Summary of the method: as §1

[6] = compound: COC(=O)N[C@@H](C)CNc1nccc(-c2cn(C(C)C)nc2-c2cc(Cl)cc(NS(C)(=O)=O)c2F)n1 [encorafenib]
Summary of the method: as §1

[7] = compound: COC(=O)[C@H](CCSC)NC(=O)C1=C(C=C(C=C1)NC[C@H](CS)N)C2=CC=CC=C2
Summary of the method: as §1

[8] = compound: Cc1cc(Nc2cc(N3CCN(C)CC3)nc(Sc3ccc(NC(=O)C4CC4)cc3)n2)n[nH]1 [tozasertib]
Summary of the method: as §1

[9] = compound: CNC(=O)C1=CC=CC=C1NC2=NC(=NC=C2Cl)NC3=C(C=C(C=C3)N4CCOCC4)OC
Summary of the method: as §1

[10] = compound: CNC(=O)c1ccc(Nc2ncc(C(F)(F)F)c(NCc3nccnc3N(C)S(C)(=O)=O)n2)cc1 [defactinib]
Summary of the method: as §1

[11] = compound: CNc1nc(-c2ccc3c(N)n[nH]c3c2)cc(N2C[C@@H](C(=O)NC3CCCCC3)CC[C@H]2C)n1
Summary of the method: as §1

[12] = compound: COc1cc(Nc2ncc3c(n2)-c2ccc(Cl)cc2C(c2c(F)cccc2OC)=NC3)ccc1C(=O)O [alisertib]
Summary of the method: as §1

[13] = compound: COc1cc2nc(-c3cc(F)ccc3O)nc(N[C@@H]3CNC[C@H]3C(C)(C)O)c2cc1OC
Summary of the method: as §1

[14] = compound: COc1cc2ncnc(Nc3ccc(F)c(Cl)c3)c2cc1OCCCN1CCOCC1 [gefitinib]
Summary of the method: as §1

[15] = compound: CS(=O)(=O)CCNCc1ccc(-c2ccc3ncnc(Nc4ccc(OCc5cccc(F)c5)c(Cl)c4)c3c2)o1 [lapatinib]
Summary of the method: as §1

[16] = compound: CS(=O)(=O)N1CCN(Cc2cc3nc(-c4cccc5[nH]ncc45)nc(N4CCOCC4)c3s2)CC1 [pictilisib]
Summary of the method: as §1

[17] = compound: C[C@@H](Oc1cc(-c2cnn(C3CCNCC3)c2)cnc1N)c1c(Cl)ccc(F)c1Cl [crizotinib]
Summary of the method: as §1

[18] = compound: C[C@H](Nc1ncnc2nc[nH]c12)c1cc2cccc(Cl)c2c(=O)n1-c1ccccc1 [duvelisib]
Summary of the method: as §1

[19] = compound: Cc1ccc(-n2nc(C(C)(C)C)cc2NC(=O)Nc2ccc(OCCN3CCOCC3)c3ccccc23)cc1 [doramapimod]
Summary of the method: as §1

[20] = compound: Cc1ccc(NC(=O)c2ccc(CN3CC[C@H](N(C)C)C3)c(C(F)(F)F)c2)cc1Nc1nccc(-c2cncnc2)n1 [bafetinib]
Summary of the method: as §1

Measured: log2 fold change

PRRG1 (UniProt O14668)
inactive: [1] -0.032

PTGDR2 (UniProt Q9Y5Y4)
inactive: [2] 0.043 | [3] 0.092 | [4] -0.133 | [5] 0.049

PTPA (UniProt A6PVN8)
inactive: [6] 0.028 | [7] 0.281 | [8] -0.066

PTPN18 (UniProt Q99952)
inactive: [1] -0.029 | [9] 0.013 | [10] -0.045 | [11] 0.142 | [6] 0.013 | [7] 0.145 | [12] 0.001 | [13] 0.045 | [14] 0.006 | [15] 0.113 | [16] -0.299 | [17] -0.017 | [18] 0.01 | [8] -0.08 | [19] -0.031 | [20] -0.094

PTP4A3 (UniProt O75365)
inactive: [9] 0.131 | [10] -0.076 | [11] 0.134 | [6] -0.09 | [7] 0.276 | [13] -0.147 | [15] -0.061 | [17] -0.041 | [18] 0.361 | [8] 0.112 | [19] -0.12

PRR16 (UniProt Q569H4)
inactive: [17] -0.124 | [19] 0.036

PSAP isoform 2 (UniProt P07602)
inactive: [9] -0.169

PTMS (UniProt F5GXR3)
inactive: [10] 0.06

PWWP2A (UniProt Q96N64)
inactive: [2] -0.165 | [3] -0.197 | [4] -0.567 | [5] 0.117

PSMA7 isoform 2 (UniProt O14818)
inactive: [11] -0.147 | [6] 0.005 | [7] 0.125 | [12] 0.201 | [14] 0.115 | [17] 0.053 | [18] 0.044 | [8] 0.354 | [19] 0.093

PTPA (UniProt Q5T949)
inactive: [12] 0.106 | [13] 0.124 | [14] -0.173 | [15] 0.047

PTPN11 (UniProt Q06124)
inactive: [2] -0.008 | [3] -0.067 | [4] 0.034 | [5] 0.051

PTGER3 isoform 2 (UniProt P43115)
inactive: [13] 0.141 | [15] 0 | [17] 0.154 | [19] -0.095

PTPN11, A0A0U1RRI0
inactive: [13] -0.113 | [15] 0.019

PSTK (UniProt H7BYY4)
inactive: [2] -0.019 | [11] -0.116 | [3] 0.021 | [18] -0.001 | [4] -0.042 | [5] 0.206

PSMC5 (UniProt J3KRP2)
inactive: [12] -0.057 | [13] 0.064 | [14] -0.006 | [15] -0.021

PTPN14 (UniProt Q15678)
inactive: [6] -0.046 | [7] 0.049 | [17] -0.123 | [8] -0.073 | [19] 0.063

PRUNE2 isoform 3 (UniProt Q8WUY3)
inactive: [1] 0.016 | [9] -0.023 | [10] 0.103 | [11] 0.146 | [12] -0.066 | [13] -0.029 | [14] -0.151 | [15] 0.011 | [16] 0.028 | [17] 0.032 | [18] -0.004 | [19] -0.094 | [20] 0.159

PSMD1, A0A087WW66
inactive: [13] 0.037 | [15] -0.116 | [16] -0.271 | [20] 0.182

PUM2 (UniProt C9JW01)
inactive: [2] -0.106 | [3] -0.163 | [4] 0.204 | [5] 0.463

PTCD2 (UniProt Q8WV60)
inactive: [1] -0.178 | [9] -0.079 | [10] -0.046 | [11] 0.062 | [6] -0.081 | [7] 0 | [12] 0.101 | [13] 0.243 | [14] 0.07 | [15] -0.088 | [17] -0.11 | [18] -0.032 | [8] 0.016 | [19] 0.024

PTBP1, A0A0U1RRM4
inactive: [13] -0.081 | [15] -0.074

PTPDC1 isoform 2 (UniProt A2A3K4)
inactive: [9] 0.045 | [10] 0.165 | [12] 0.068 | [14] 0.11 | [16] -0.075 | [17] 0.007 | [19] 0.029 | [20] -0.279

PSMA3 (UniProt H0YJ03)
inactive: [1] 0.106 | [9] 0.073 | [10] -0.185 | [11] 0.126 | [6] 0 | [7] -0.007 | [13] 0.137 | [15] 0.002 | [17] -0.078 | [18] -0.052 | [8] -0.034 | [19] -0.08

2 records picked at random from the list so far:
PUM2 (UniProt C9JW01)
inactive: [2] -0.106 | [3] -0.163 | [4] 0.204 | [5] 0.463

PSMA3 (UniProt H0YJ03)
inactive: [1] 0.106 | [9] 0.073 | [10] -0.185 | [11] 0.126 | [6] 0 | [7] -0.007 | [13] 0.137 | [15] 0.002 | [17] -0.078 | [18] -0.052 | [8] -0.034 | [19] -0.08
